According to article PMC2887905:
These are yes or no findings as the source states them, for the method shown.

target: Recombinant HIV-1 gp120 (LAV, CXCR4 monotropic, identical to NL4-3 gp120, glycosylated) (HIV-1 (LAV; identical to NL4-3 gp120)) (UniProt P03377); assay: condition: below 5 RU; tested at 1, 5, 10, 25 and 50 μg/ml; SPR; LAV gp120 immobilised by NHS/EDC coupling on a CM5 sensor chip (3500-5000 RU), Biacore 1000, HBS-EP buffer, flow rate 5 μl/min for 6 min; proteins tested at 1, 5, 10, 25 and 50 μg/ml; both purified

Substance | binding
bovine serum albumin, normal, non-modified (from UniProt P02769 25-607) | no binding
mouse serum albumin, normal, non-modified (from UniProt P07724 25-608) | no binding
human serum albumin, normal, non-modified (from UniProt P02768 25-609) | no binding
